The text below walks through data of article PMC10450504.

No constants are given. Whether binding was seen depends on the method and setting. Binding seen in cells or lysates may run through a third protein. Some binding calls cover weakened binding; strength is not graded here. For some assays here: Where a sequence is shown, tags or fusion partners need not be part of it.

The target of experiment [1] is T1, mouse CD9-GFP expressed in HEK293T/17 cells (mouse) (UniProt P40240).
T1 sequence: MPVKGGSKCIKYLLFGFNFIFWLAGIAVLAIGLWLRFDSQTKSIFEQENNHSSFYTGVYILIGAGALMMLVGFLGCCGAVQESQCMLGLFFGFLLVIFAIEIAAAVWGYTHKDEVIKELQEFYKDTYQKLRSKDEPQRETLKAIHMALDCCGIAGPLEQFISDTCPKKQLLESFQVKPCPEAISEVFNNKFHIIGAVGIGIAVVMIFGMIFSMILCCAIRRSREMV
Kind of experiment: co-IP; lysate (1% CHAPS, 30 mM Tris-HCl pH 7.5) of HEK293T/17 cells co-transfected with Juno and CD9-GFP; anti-GFP antibody on Protein G magnetic beads overnight at 4°C; Western blot with anti-Juno antibody.

Experiment [2] deals with T2, CD9, endogenous in mouse oocyte oolemma (mouse (endogenous in mouse oocytes)) (UniProt P40240).
T2 sequence: T1 sequence
Put plainly: proximity ligation; Duolink In Situ Red kit on fixed zona-free mouse MII oocytes; pairs of primary antibodies overnight at 4°C, PLUS and MINUS PLA probes; confocal microscopy.

B1: mouse Juno expressed in HEK293T/17 cells (receptor, UniProt Q9EQF4 20-221)
chain: GDKLLSVCMNSKRHKQEPGPEDELYQECRPWEDNACCTRSTSWEAHLEEPLLFNFSMMHCGLLTPACRKHFIQAICFHECSPNLGPWIQPVVPNGQEEQRVWGVPLCQEDCEDWWRACHSSLTCKSNWLHGWDWSEEKKHCPAHEPCLPFSYHFPTPDDLCEKIWNNTFKASPERRNSGRCLQKWFEPTLSNPNVEVALHFA
Consider B1, for which the binding entry in experiment [1] is “binds”.

B2: Juno (Folate receptor 4), endogenous in mouse oocyte oolemma (receptor, UniProt Q9EQF4 20-222)
chain: GDKLLSVCMNSKRHKQEPGPEDELYQECRPWEDNACCTRSTSWEAHLEEPLLFNFSMMHCGLLTPACRKHFIQAICFHECSPNLGPWIQPVVPNGQEEQRVWGVPLCQEDCEDWWRACHSSLTCKSNWLHGWDWSEEKKHCPAHEPCLPFSYHFPTPDDLCEKIWNNTFKASPERRNSGRCLQKWFEPTLSNPNVEVALHFAG
Take B2: the binding result in experiment [2] is recorded as “binds”.
